Patent publication US7196080B2, “Phenylpyridinecarbonylpiperazinederivative” (Astellas Pharma Inc., priority 2001, dated 2007)
Some of these results come from one statement about several compounds together.

test system: PDE4; assay: PDE4 inhibitory activity (Test Example 1); format: biochemical; conditions: PDE4 purified from rat ventricle muscle; 1 μM cAMP, [3H]cAMP SPA

IC50, ≤ 12 nM:
COc1ccc(N2CCN(C(=O)c3cccc(-c4ccc(OC)c(OC)c4)n3)CC2)cc1 [Example 2, 1-[6-(3,4-dimethoxyphenyl)pyridine-2-carbonyl]-4-(4-methoxyphenyl)piperazine]
COc1ccc(-c2cccc(C(=O)N3CCN(c4ccc(OCc5cc[n+]([O-])cc5)cc4)CC3)n2)cc1OC [Example 10, 1-[6-(3,4-dimethoxyphenyl)pyridine-2-carbonyl]-4-[4-(1-oxido-4-pyridylmethoxy)phenyl]piperazine]
COc1ccc(-c2cccc(C(=O)N3CCN(c4ccc(N5CCOCC5)cc4)CC3)n2)cc1OC [Example 15, 4-(4-{4-[6-(3,4-dimethoxyphenyl)pyridine-2-carbonyl]piperazin-1-yl)phenyl)morpholine]
COc1ccc(-c2cccc(C(=O)N3CCN(c4ccc(C(C)=O)cc4)CC3)n2)cc1OC [Example 32]
COc1ccc(-c2cccc(C(=O)N3CCN(c4ccc(NC(C)=O)cc4)CC3)n2)cc1OC [Example 43, 4′-{4-[6-(3,4-dimethoxyphenyl)pyridine-2-carbonyl]piperazin-1-yl}acetanilide]
CCN(CC)CCC(=O)Nc1ccc(N2CCN(C(=O)c3cccc(-c4ccc(OC)c(OC)c4)n3)CC2)cc1 [Example 45, 3-diethylamino-4′-{4-[6-(3,4-dimethoxyphenyl)pyridine-2-carbonyl]piperazin-1-yl}propananilide]
COc1ccc(-c2cccc(C(=O)N3CCN(c4cccc(Br)n4)CC3)n2)cc1OC [Example 77, 1-(6-bromo-2-pyridyl)-4-[6-(3,4-dimethoxyphenyl)pyridine-2-carbonyl]piperazine]
COc1ccc(-c2cccc(C(=O)N3CCN(c4ccc(OCCN5CCC(O)CC5)cc4)CC3)n2)cc1OC [Example 95, 1-[2-(4-{4-[6-(3,4-dimethoxyphenyl)pyridine-2-carbonyl]piperazin-1-yl}phenoxy)ethyl]piperidin-4-ol]
COc1ccc(-c2cccc(C(=O)N3CCN(c4ccc(C(C)=O)cc4)CC3)n2)cc1OCC1CC1 [Example 112, 1-(4-{4-[6-(3-cyclopropylmethoxy-4-methoxyphenyl)pyridine-2-carbonyl]piperazin-1-yl}phenyl)ethanone]
